# Test results from publication PMC3793875.
# Sequences of proteins named here, by UniProt entry; tags and fusion partners are left off. A change or cut given only in a name is not applied to a line headed by its entry. A line that says so, or that is headed by a name, gives the form on record, which may keep a tag or linker.
# UniProt P21555: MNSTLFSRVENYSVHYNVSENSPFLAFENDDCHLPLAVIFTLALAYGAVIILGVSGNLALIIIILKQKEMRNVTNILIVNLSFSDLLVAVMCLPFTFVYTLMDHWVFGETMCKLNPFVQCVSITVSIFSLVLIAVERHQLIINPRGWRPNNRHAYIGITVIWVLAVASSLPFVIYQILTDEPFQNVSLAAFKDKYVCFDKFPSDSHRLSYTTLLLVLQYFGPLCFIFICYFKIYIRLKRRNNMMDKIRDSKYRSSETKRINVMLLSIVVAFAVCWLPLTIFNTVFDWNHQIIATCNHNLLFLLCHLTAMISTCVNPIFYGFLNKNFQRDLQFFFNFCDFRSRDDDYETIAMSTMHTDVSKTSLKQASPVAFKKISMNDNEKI
# Y1 6A receptor-Gc (P21555, form named): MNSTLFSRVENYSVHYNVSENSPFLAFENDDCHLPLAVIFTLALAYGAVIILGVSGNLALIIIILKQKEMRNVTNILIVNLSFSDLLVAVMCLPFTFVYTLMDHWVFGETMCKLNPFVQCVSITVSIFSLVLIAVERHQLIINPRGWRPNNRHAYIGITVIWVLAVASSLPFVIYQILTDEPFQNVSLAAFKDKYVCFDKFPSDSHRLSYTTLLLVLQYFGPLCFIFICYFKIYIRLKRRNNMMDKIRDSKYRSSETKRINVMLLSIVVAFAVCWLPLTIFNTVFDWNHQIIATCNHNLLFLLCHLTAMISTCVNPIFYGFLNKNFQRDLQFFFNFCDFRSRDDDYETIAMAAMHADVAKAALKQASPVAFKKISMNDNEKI
# UniProt P49407: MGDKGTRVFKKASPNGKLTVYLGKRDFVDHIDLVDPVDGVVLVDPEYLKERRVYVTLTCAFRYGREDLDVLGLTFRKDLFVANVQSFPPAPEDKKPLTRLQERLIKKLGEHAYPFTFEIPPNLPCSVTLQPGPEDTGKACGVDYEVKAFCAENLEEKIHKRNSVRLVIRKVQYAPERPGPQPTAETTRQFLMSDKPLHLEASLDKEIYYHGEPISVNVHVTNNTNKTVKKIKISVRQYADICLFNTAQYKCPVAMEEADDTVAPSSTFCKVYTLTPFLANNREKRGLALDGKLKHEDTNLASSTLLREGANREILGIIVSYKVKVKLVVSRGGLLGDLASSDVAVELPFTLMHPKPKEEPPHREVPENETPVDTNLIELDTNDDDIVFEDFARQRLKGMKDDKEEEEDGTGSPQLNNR
# Results are given in words; binding and its absence hold for the method and conditions named. In cells and extracts the contact can be indirect. Some entries that bind do so weakly or less than the wild type.
# Assays:
# Y1 6A receptor-Gc (rat) = Y1 6A receptor-Gc (rat) (UniProt P21555); experiment: split reporter; sfGFP BiFC (receptor-Gc with β-arrestin-Gn) in live stable HEK293 cells, confocal microscopy at 37 °C, control or 100 nM NPY for 60 min
# [1] = target: Y1 receptor-Gc (rat Y1 receptor fused at the C terminus to sfGFP fragment 155-238) (rat) (UniProt P21555); experiment: as above
# [2] = target: Y1 receptor, YFP BiFC fusion (rat) (UniProt P21555); experiment: split reporter; YFP BiFC system, basal and NPY-stimulated, quantitative data in Supplementary Fig. 1
Substance,binding (Y1 6A receptor-Gc (rat)),binding [1],binding [2]
β-arrestin1-Gn (human β-arrestin1 fused at the C terminus to sfGFP fragment 2-172) (from UniProt P49407 1-418),no binding,binds,
"β-arrestin1, YFP BiFC fusion (from UniProt P49407 1-418)",,,binds
